According to patent publication US5861477A (priority 1996, dated 1999):

Assay: general procedure: Fmoc solid-phase peptide synthesis; benzyloxybenzyl alcohol resin (Wang resin) with Fmoc-S-tert-butylcysteine coupled
Conditions: for step yield: purification step, of the monomer; for cyclisation yield: cyclisation step

Substance | step yield | cyclisation yield
PEPTIDE1{C.E.G.V.H.F.D.A.S.G.G.T.N.V.P.K.G.G.E.H.G.F.K.C}$PEPTIDE1,PEPTIDE1,1:R3-24:R3$$$V2.0 | 12.2% | 
PEPTIDE1{C.T.N.R.N.G.G.D.G.G.L.E.I.N.G.W.W.G.G.I.G.D.G.D.G.A.W.V.A.G.R.G.F.E.S.N.C}$PEPTIDE1,PEPTIDE1,1:R3-37:R3$$$V2.0 | 12.9% | 
PEPTIDE1{C.G.F.H.F.G.G.S.D.G.M.G.S.S.G.G.V.S.W.G.I.G.G.D.G.A.A.H.C}$PEPTIDE1,PEPTIDE1,1:R3-29:R3$$$V2.0 | 12.1% | 26.7%
cyclo(-S-cystinyl-glycyl-tyrosyl-histidyl-phenylalanyl-glycyl-glycyl-seryl- aspartyl-glycyl-glutamyl-glycyl-seryl-aspartyl-glycyl-glycyl-valyl-seryl-tryptophanyl-glycyl-leucyl-glycyl-glycyl-aspartyl-glycyl-alanyl-alanyl-histidyl-cystinyl-S) (CGYHFGGSDGEGSDGGVSWGLGGDGAAHC; cyclic) | 11.5% | 33.2%

Some peptides are written in HELM: one residue between dots, names in brackets for other building blocks, links after the first $.
